Reference: PubChem BioAssay AID2685 (National Center for Advancing Translational Sciences (NCATS), 2010)
The list shows a part of the results. Further columns of the screen follow, without active or inactive calls. Compounds called inactive in the main read-out are mostly missing here. Words in brackets tell the shape of the fitted curve; partial curves, single points and poor fits give uncertain potencies.

Test: qHTS Assay for Lipid Storage Modulators in Drosophila S3 Cells;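 on cell number change: cells counted by Cell Tracker Red CMTPX staining in the red channel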
Details: BODIPY lipid droplet fluorescence, 18-24 h; for cell number change: measured here: cell count max response, cells fed with added oleic acid
Outline: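 Laser-scanning cytometry quantifies lipid droplet accumulation (500–530 nm total intensity; droplet/cell object ratio) in oleic acid-fed (400 uM added) Drosophila S3 cells treated with a concentration series. 20 uM Triacsin C defined 100% inhibition.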

[1] = measured here: cell number channel AC50, cells fed with added oleic acid
[2] = measured here: lipid fluorescence (Fed channel) AC50, cells fed with added oleic acid

| SMILES | cell number change | AC50 [1] | AC50 [2] |
| --- | --- | --- | --- |
| CCOC(=O)c1cc(-c2ccccc2)sc1NC(=O)COC(=O)c1cccc(S(N)(=O)=O)c1 | -15.9% | 2.06 µM [falling, single point] | 20.6 µM [falling, single point] |
| CCOc1ccc(/C=N/NS(=O)(=O)c2ccc(C)cc2)cc1OC | -8.77% | – | – |
| COc1ccc(S(=O)(=O)N2CCOCC2)cc1C(=O)N(C)Cc1ccccc1F | -34.1% | 0.0058 µM [falling, full curve, poor fit] | 16.4 µM [falling, single point] |
| COC(=O)C1=CN(CCOC23CC4CC(CC(C4)C2)C3)C=C(C(=O)OC)C1c1ccsc1 | -12.6% | 0.58 µM [falling, partial curve, poor fit] | – |
| COc1cc([N+](=O)[O-])ccc1NC(=O)CSc1n[nH]c(C(C)C)n1 | -18.3% | – | – |
| Cc1ccc(NC(=S)N(CCN(C)C)C(C)c2ccco2)cc1Cl (centres undefined) | – | – | 6.51 µM [rising, single point] |
| CC(=O)Nc1ccc(NC(=O)CSc2nnc(-c3ccco3)o2)cc1 | -3.49% | 0.13 µM [falling, full curve, poor fit] | – |
| CC(C)c1ccc(OCC(=O)N(Cc2ccccc2)c2ccccn2)cc1 | 7.65% | – | – |
| COc1ccc(CCNC(=O)C(Sc2ccccn2)c2ccccc2)cc1OC (centres undefined) | -14.1% | – | 7.31 µM [falling, partial curve] |
| CC(=O)N1c2ccccc2N(Cc2ccc(C)cc2C)C(=O)C1(C)C | 5.71% | – | 0.146 µM [rising, full curve, poor fit] |
| CCN(CC)c1ccc(NC(=O)C2CC3CCC2C3)cc1 (centres undefined) | -8.47% | – | – |
| CC(C)P(=O)(Cc1cccc(C#N)c1)C(C)C | -47.7% | 5.8 µM [falling, full curve] | 5.8 µM [falling, full curve] |
| COc1cccc(NC(=O)NC2CCN(Cc3nnnn3Cc3ccc4c(c3)OCO4)CC2)c1 | 20% | – | 9.2 µM [rising, partial curve] |
| Cc1cccc(NC(=O)Cn2c(=O)oc3cc(S(=O)(=O)N4CCCC4)ccc32)n1 | 13.8% | – | – |
| CCCCC(C(=O)NC1CCCC1)N(C(=O)c1snc(C(N)=O)c1N)c1ccc(C)cc1 (centres undefined) | 21.3% | – | – |
| Cc1noc(C)c1S(=O)(=O)N1CCN(c2ccccc2)CC1 | -41.1% | 32.6 µM [falling, single point] | – |
| COC(=O)c1sccc1N(C)S(C)(=O)=O | -3.69% | 0.58 µM [falling, full curve] | 0.58 µM [falling, full curve] |
| Cc1nn(C)cc1NC(=O)CCSc1nc(-c2ccco2)cc(C(F)(F)F)n1 | 149% | 0.517 µM [rising, single point] | 0.58 µM [rising, single point] |
| O=C(Nc1ccccc1)N(CCCN1CCOCC1)Cc1ccccc1F | -0.885% | – | – |
| Cc1cc(C)n(-c2ccc(C(=O)OCC(=O)Nc3cc(S(C)(=O)=O)ccc3Cl)cc2)n1 | -4.65% | – | – |

| SMILES | cell number change | AC50 [1] | AC50 [2] |
| --- | --- | --- | --- |
| CCOc1ccc(NC(C)=O)cc1N | 26.6% | – | 2.06 µM [rising, partial curve] |
| CCN(CC)S(=O)(=O)c1cc(NC(=O)CN2C(=O)NC3(CCCc4ccccc43)C2=O)ccc1C (centres undefined) | 28.7% | – | 5.17 µM [rising, partial curve] |
| Cc1ccc(NCc2ccccc2O)cc1C | -29.3% | – | 32.6 µM [falling, single point] |
| O=C(O)c1cccc2c1C(=O)c1ccc(N3CCCCC3)cc1S2(=O)=O | 10.8% | – | 29.1 µM [rising, partial curve, poor fit] |
| COc1cccc(N(C(=O)Cn2nnc3ccccc32)C(C(=O)NCc2ccco2)c2cccnc2)c1 (centres undefined) | 37% | 1.16 µM [rising, partial curve] | 4.11 µM [rising, full curve] |
| CCOC(=O)N1CCC(=NNC(=O)c2cc3ccccc3cc2O)CC1 | -66.7% | 0.116 µM [falling, full curve] | – |
| CC1CCCC(C)N1C(=O)COC(=O)c1cc([N+](=O)[O-])ccc1N1CCOCC1 (centres undefined) | 48.4% | 29.1 µM [rising, single point] | – |
| Cn1c(CNC(=O)c2ccc(Cl)cc2)nnc1SCC(=O)N1CCOCC1 | 15.3% | – | – |
| O=C1CCCN2N=C(SCC(=O)Nc3cccc(C(F)(F)F)c3)SC2=N1 | -32.4% | 3.26 µM [falling, full curve] | – |
| Cn1cnc([N+](=O)[O-])c1Oc1ccc2ccccc2c1 | -8.68% | – | 6.51 µM [falling, full curve, poor fit] |
| COc1ccc(C2=NN(C(=O)CCCC(=O)O)C(c3cn(-c4ccccc4)nc3-c3ccccc3)C2)cc1 (centres undefined) | -3.14% | 2.59 µM [rising, single point] | 6.51 µM [rising, single point] |
| O=C(/C=C/c1ccccc1)Nc1cc(C(=O)O)cc(C(=O)O)c1 | 24.6% | – | 0.651 µM [rising, full curve, poor fit] |
| CS(=O)(=O)c1ccc(-c2cccc(NC(=O)COc3ccc(Cl)cc3)c2)nn1 | 58.5% | 14.6 µM [rising, single point] | 0.82 µM [falling, single point] |
| COc1ccc(/C=C/C(=O)c2cc(Br)ccc2OC(=O)c2ccco2)cc1OC | -45.5% | 11.6 µM [falling, partial curve] | 20.6 µM [falling, partial curve] |
| COc1cccc(C(=O)Nc2cccc(SC)c2)c1 | 6.05% | – | 29.1 µM [rising, single point] |
| Cc1cc(C)cc(NC(=O)N2CCC(c3nc4ccccc4o3)CC2)c1 | – | 0.116 µM [rising, full curve] | – |
| Cc1cc(=O)[nH]c(SCC(=O)Nc2ccc(Cl)cn2)n1 | 121% | 23.1 µM [rising, single point] | – |
| COc1ccc(C2=C3C(=O)OCC3Cc3ncn(Cc4ccccc4)c32)cc1 (centres undefined) | 22.8% | – | 0.146 µM [falling, single point] |
| O=C(NCCc1nnc2ccc(SCC(=O)N3CCCC3)nn12)c1ccc(F)cc1 | -31.2% | 0.461 µM [rising, single point] | 0.82 µM [falling, full curve] |
| COc1ccc(C(=O)N2CCN(C)C(=O)[C@@H]2C)cc1OC1CCN(C(C)=O)CC1 | – | – | 32.6 µM [falling, single point] |

| SMILES | cell number change | AC50 [1] | AC50 [2] |
| --- | --- | --- | --- |
| COc1ccc(C(=O)NC(C)c2cc(OC)c(OC)cc2Br)cc1 (centres undefined) | 44.8% | 6.51 µM [falling, single point] | – |
| Cc1sc2nc(CN3CCOCC3)nc(NCCc3ccccc3)c2c1C | -20.6% | – | 14.6 µM [falling, partial curve] |
| CCOC(=O)N1CCN(C(=S)NC(=O)/C=C/c2ccc(C)cc2)CC1 | 17.9% | – | 23.1 µM [rising, single point] |
| O=c1c2ccccc2cnn1Cc1n[nH]c(=S)n1-c1ccccc1 | -50% | 29.1 µM [falling, single point] | 23.1 µM [rising, partial curve, poor fit] |
| COc1ccc(NC(=O)C(CC(=O)O)Cc2ccc(Cl)cc2)cc1 (centres undefined) | 0.73% | – | 16.4 µM [rising, partial curve] |
| COc1ccc(C(=O)NCc2cccnc2)cc1S(=O)(=O)N1CCOCC1 | -2.01% | – | 23.1 µM [falling, partial curve] |
| COCCn1c(C)cc(C(=O)CSc2nc3nc(C)cc(C)n3n2)c1C | 34.9% | 6.51 µM [falling, single point] | 23.1 µM [rising, single point] |
| O=C(CSc1nc2ccccc2[nH]1)c1ccc(Cl)s1 | 30.9% | 1.84 µM [rising, partial curve, poor fit] | – |
| COc1ccc(/C=C/C(=O)OCc2cccc([N+](=O)[O-])c2)cc1 | -3.42% | 0.731 µM [falling, full curve, poor fit] | – |
| CCCN1C(=O)CC(Sc2ncccc2C(=O)O)C1=O (centres undefined) | -21.3% | – | 4.11 µM [falling, full curve] |
| CCc1ccc(NC(=O)CSc2nc(=O)n(CCN(C)C)c3c2CCCC3)cc1 | -20% | 2.06 µM [falling, full curve, poor fit] | 2.06 µM [falling, partial curve, poor fit] |
| Cc1c(NC(=O)c2cccc(NS(C)(=O)=O)c2)c(=O)n(-c2ccccc2)n1C | – | – | 23.1 µM [rising, single point] |
| COc1ccccc1C1C(C(N)=O)=C(C)Nc2nc(-c3ccccc3Cl)nn21 (centres undefined) | 18.1% | – | 20.6 µM [rising, single point] |
| CCN1CCCC1CNc1ncnc2c1[nH]c1ccc(Cl)cc12 (centres undefined) | -3.35% | – | 2.06 µM [rising, full curve] |
| CCN(CC)CCCOC(=O)C1(c2ccccc2)CCCC1 | -57.9% | 16.4 µM [falling, partial curve, poor fit] | 23.1 µM [falling, partial curve] |
| CCOc1ccccc1NS(=O)(=O)c1cc2c3c(c1)CC(=O)N3CCC2 | 7.63% | – | – |
| O=C(O)CCN1C(=O)c2ccc(NC(=O)COc3ccccc3)cc2C1=O | 21.8% | – | 23.1 µM [rising, single point] |
| CC(C)(C)NC(=O)CSc1nc(O)cc(=O)[nH]1 | -11.1% | 0.058 µM [rising, full curve, poor fit] | – |
| O=C(NC1CCN(C(=O)Nc2cccc(Cl)c2)CC1)C1CCCCC1 | 29.5% | 1.46 µM [rising, full curve, poor fit] | 6.51 µM [falling, single point] |

Molecules listed so far containing bromine, in the order listed:

| SMILES | cell number change | AC50 [1] | AC50 [2] |
| --- | --- | --- | --- |
| COc1ccc(/C=C/C(=O)c2cc(Br)ccc2OC(=O)c2ccco2)cc1OC | -45.5% | 11.6 µM [falling, partial curve] | 20.6 µM [falling, partial curve] |
| COc1ccc(C(=O)NC(C)c2cc(OC)c(OC)cc2Br)cc1 (centres undefined) | 44.8% | 6.51 µM [falling, single point] | – |
